# Laboratory results: US20100098681A1
# Protein sequences, listed by entry. Tags and fused reporters are not part of them. Lines headed by an entry give the natural chain unless they say otherwise; changes in a name come on top.
# UniProt P01133: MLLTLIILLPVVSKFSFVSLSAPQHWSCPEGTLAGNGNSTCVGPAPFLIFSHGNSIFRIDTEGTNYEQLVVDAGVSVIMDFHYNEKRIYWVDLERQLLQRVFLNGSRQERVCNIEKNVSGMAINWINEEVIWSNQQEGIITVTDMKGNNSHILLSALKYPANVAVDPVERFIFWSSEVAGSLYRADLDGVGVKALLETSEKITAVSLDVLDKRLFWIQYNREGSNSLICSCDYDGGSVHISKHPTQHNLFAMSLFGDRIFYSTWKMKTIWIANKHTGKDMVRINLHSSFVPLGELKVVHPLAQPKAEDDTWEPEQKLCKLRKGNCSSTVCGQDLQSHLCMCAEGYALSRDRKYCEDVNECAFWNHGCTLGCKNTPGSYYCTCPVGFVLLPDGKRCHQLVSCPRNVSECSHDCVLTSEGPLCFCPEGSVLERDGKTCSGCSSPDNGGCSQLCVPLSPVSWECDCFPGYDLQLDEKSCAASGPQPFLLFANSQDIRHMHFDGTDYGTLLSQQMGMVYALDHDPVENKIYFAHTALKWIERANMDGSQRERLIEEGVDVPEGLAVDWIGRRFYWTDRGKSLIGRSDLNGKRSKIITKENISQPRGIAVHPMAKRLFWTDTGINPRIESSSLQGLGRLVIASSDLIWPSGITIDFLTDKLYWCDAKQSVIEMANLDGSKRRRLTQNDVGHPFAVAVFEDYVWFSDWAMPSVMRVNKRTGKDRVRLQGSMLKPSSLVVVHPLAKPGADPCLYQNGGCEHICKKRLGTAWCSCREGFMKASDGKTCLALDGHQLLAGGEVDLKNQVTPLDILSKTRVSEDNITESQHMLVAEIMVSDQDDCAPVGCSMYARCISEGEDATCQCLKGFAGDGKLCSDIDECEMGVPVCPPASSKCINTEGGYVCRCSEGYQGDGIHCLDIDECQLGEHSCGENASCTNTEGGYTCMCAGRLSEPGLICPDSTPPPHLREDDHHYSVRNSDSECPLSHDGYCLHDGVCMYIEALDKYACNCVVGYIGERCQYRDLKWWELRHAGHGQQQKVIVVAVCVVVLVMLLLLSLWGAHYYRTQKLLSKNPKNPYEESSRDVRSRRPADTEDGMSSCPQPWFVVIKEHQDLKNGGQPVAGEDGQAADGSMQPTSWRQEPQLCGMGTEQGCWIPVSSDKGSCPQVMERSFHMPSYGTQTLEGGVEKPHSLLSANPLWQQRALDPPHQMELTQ
# Results are given in words; binding and its absence hold for the method and conditions named. Some results given as binding are weak or reduced against the parent protein; the word gives no strength.
# B1: P145 phage (pIII CNL5) (peptide, not shown: large carriers)
# chain: AGVLCHRYYHPICYTGG
# B2: P146 phage (pIII CNL5) (peptide, not shown: large carriers)
# chain: AGTLCRSFFHPLCYAGG
# B3: P143 phage (pIII CNL5) (peptide, not shown: large carriers)
# chain: AGVLCSNFYHPLCHSGG
# B4: P173 phage (S18, pIX) (peptide, not shown: large carriers)
# chain: GGGTDCVIFGLETYCLRGGGSGGSGG
# B5: P191 phage (CNL1-11, pIII) (peptide, not shown: large carriers)
# chain: AGHFYPTKTPGYGG
# B6: P193 phage (CNL1-11, pIII) (peptide, not shown: large carriers)
# chain: AGSYYWGYTVDIRRGG
# B7: P190 phage, pIX display (190-phagemid) (peptide, not shown: large carriers)
# chain: GGGDPCTWEVWGRECLQGGGSGGSGG
# B8: P192 phage (CNL1-11, pIII) (peptide, not shown: large carriers)
# chain: AGAASRALWAFNSDGG
# B9: P175 phage (S15, pIX) (peptide, not shown: large carriers)
# chain: GGGLPDDSLPELICKVRGGGGSGGSGG
# B10: P174 phage (S16, pIX) (peptide, not shown: large carriers)
# chain: GGGSGCLDALWQCVYGGGSGGSGG
# B11: P176 phage (S20, pIX) (peptide, not shown: large carriers)
# chain: GGGKTCVSTTFDLWFVCFAGGGSGGSGG
# B12: P194 phage (CNL1-11, pIII) (peptide, not shown: large carriers)
# chain: AGSECFPLAPDWLSCILGG
# B13: P189 phage (S18, pIX) (peptide, not shown: large carriers)
# chain: GGGMFCFRWYAGWSCVSGGGSGGSGG
# B14: P179 phage (S19, pIX) (peptide, not shown: large carriers)
# chain: GGGGPCVLIRDYYLLCLEGGGSGGSGG
# Molecular target: biotinylated sEGFR-His6 (human) (UniProt P00533)
# Assay: phage ELISA, chemiluminescence; biotinylated receptor captured on streptavidin-coated wells
row,Binder,binding
1,B1,binds
2,B2,binds
3,B3,binds

# Molecular target: biotinylated sEGFR-MMB (human)
# Assay: as above
row,Binder,binding
1,B1,binds
2,B2,binds
3,B3,binds

# Molecular target: EGF + sEGFR-MMB complex (human) (UniProt P01133)
# Assay: phage ELISA, EGF + sEGFR-MMB complex
row,Binder,binding
1,B4,binds
2,B5,binds
3,B6,binds
4,B7,binds
5,B8,binds

# Molecular target: biotinylated sEGFR-His6 (human) (UniProt P00533)
# Assay: phage ELISA, streptavidin capture
row,Binder,binding
1,B1,binds
2,B2,binds
3,B3,binds

# Molecular target: sEGFR-MMB (dimeric sEGFR mimetibody) (human)
# Assay: phage ELISA, coated sEGFR-MMB
row,Binder,binding
1,B1,binds
2,B2,binds
3,B4,binds
4,B9,binds
5,B6,binds
6,B10,binds
7,B11,binds
8,B12,binds
9,B13,binds
10,B3,binds

# Molecular target: biotinylated sEGFR-His6 (human) (UniProt P00533)
# Assay: phage ELISA, biotinylated sEGFR-His on streptavidin
row,Binder,binding
1,B1,binds
2,B10,binds
3,B11,binds

# Molecular target: sEGFR-MMB (dimeric sEGFR mimetibody) (human)
# Assay: phage ELISA, chemiluminescence; protein coated on the wells; detection anti-M13-HRP
row,Binder,binding
1,B1,binds
2,B2,binds
3,B3,binds

# Molecular target: Human extracellular EGFR-His6 (sEGFR-His6) (human) (UniProt P00533)
# Assay: phage ELISA, coated sEGFR-His6
row,Binder,binding
1,B12,binds
2,B13,binds

# Molecular target: biotinylated sEGFR-His6 (human) (UniProt P00533)
# Assay: phage ELISA
row,Binder,binding
1,B10,binds
2,B11,binds

# Molecular target: sEGFR-MMB (dimeric sEGFR mimetibody) (human)
# Assay: phage ELISA
row,Binder,binding
1,B9,binds
2,B10,binds
3,B11,binds

# Molecular target: sEGFR-MMB (dimeric sEGFR mimetibody) (human)
# Assay: phage ELISA, luminescence; sEGFR-MMB coated on the wells [panel A]
row,Binder,binding
1,B9,binds
2,B10,binds
3,B11,binds

# Molecular target: biotinylated sEGFR-MMB (human)
# Assay: phage ELISA, biotinylated sEGFR-MMB on streptavidin
row,Binder,binding
1,B1,binds
2,B4,binds
3,B9,binds
4,B10,binds
5,B11,binds

# Molecular target: b-sEGFR-strep (human) (UniProt P00533)
# Assay: phage ELISA, chemiluminescence; receptor captured on streptavidin-coated wells
row,Binder,binding
1,B1,binds
2,B2,binds
3,B3,binds

# Molecular target: EGF + sEGFR-MMB complex (human) (UniProt P01133)
# Assay: phage ELISA, coated sEGFR-MMB with EGF
row,Binder,binding
1,B7,binds

# Molecular target: EGF + sEGFR-MMB complex (human) (UniProt P01133)
# Assay: phage ELISA, luminescence; coated sEGFR-MMB with EGF added before the phage [panel B]
row,Binder,binding
1,B14,binds
2,B9,binds
3,B10,binds

# Molecular target: biotinylated sEGFR-His6 (human) (UniProt P00533)
# Assay: phage ELISA, luminescence; biotinylated receptor captured on streptavidin [panel C]
row,Binder,binding
1,B10,binds
2,B11,binds

# Molecular target: biotinylated sEGFR-MMB (human)
# Assay: as above
row,Binder,binding
1,B9,binds
2,B10,binds
3,B11,binds
